Binding data for 2 substances are collected here from article doi:10.1101/2023.08.10.552743.

By UniProt entry, the sequences of proteins in these tests, tags left out. Where a name states a change or a piece, a line headed by the entry shows the natural chain unless it says otherwise.
UniProt Q9NV88, whole entry: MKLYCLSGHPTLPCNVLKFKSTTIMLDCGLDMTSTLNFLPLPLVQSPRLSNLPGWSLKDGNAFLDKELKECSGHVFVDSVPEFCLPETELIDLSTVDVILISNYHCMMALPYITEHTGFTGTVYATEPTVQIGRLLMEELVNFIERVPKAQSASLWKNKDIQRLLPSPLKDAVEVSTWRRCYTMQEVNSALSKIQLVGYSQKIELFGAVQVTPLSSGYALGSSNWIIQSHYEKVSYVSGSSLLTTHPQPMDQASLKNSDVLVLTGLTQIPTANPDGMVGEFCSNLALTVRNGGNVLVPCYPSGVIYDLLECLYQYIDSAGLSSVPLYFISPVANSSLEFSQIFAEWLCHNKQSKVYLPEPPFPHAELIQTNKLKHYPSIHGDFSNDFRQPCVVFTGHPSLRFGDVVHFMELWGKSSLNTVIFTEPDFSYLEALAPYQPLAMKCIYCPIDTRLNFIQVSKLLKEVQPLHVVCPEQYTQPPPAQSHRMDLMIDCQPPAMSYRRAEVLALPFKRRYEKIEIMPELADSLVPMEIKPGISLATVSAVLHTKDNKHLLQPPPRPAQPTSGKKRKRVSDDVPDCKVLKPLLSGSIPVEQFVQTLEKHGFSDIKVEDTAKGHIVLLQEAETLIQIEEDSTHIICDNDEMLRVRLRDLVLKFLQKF
UniProt Q5TA45, whole entry: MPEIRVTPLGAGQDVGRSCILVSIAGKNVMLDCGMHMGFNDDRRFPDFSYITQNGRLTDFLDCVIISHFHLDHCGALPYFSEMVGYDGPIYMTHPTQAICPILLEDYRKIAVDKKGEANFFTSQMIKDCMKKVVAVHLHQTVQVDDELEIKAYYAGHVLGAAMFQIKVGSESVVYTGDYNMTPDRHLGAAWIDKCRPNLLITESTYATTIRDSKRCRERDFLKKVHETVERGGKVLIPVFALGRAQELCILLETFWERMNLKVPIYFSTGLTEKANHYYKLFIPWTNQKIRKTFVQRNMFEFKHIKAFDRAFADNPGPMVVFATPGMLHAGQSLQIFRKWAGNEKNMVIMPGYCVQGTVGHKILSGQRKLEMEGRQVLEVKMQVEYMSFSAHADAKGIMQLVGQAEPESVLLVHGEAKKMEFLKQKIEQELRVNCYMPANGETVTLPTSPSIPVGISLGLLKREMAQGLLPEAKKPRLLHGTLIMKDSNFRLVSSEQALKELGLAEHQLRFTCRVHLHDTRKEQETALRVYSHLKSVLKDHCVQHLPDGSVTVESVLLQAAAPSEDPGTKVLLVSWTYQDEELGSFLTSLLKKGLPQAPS

Residue numbers refer to the chain shown, from its start. No constants are given. Whether binding was seen depends on the method and setting. For part of these data: Binding seen in cells or lysates may run through a third protein. Some entries that bind do so weakly or less than the wild type. Where a sequence is shown, tags or fusion partners need not be part of it.

The target in assay [1] is T1, Flag-BRAT1 wild type (human) (UniProt Q6PJG6).
T1 sequence: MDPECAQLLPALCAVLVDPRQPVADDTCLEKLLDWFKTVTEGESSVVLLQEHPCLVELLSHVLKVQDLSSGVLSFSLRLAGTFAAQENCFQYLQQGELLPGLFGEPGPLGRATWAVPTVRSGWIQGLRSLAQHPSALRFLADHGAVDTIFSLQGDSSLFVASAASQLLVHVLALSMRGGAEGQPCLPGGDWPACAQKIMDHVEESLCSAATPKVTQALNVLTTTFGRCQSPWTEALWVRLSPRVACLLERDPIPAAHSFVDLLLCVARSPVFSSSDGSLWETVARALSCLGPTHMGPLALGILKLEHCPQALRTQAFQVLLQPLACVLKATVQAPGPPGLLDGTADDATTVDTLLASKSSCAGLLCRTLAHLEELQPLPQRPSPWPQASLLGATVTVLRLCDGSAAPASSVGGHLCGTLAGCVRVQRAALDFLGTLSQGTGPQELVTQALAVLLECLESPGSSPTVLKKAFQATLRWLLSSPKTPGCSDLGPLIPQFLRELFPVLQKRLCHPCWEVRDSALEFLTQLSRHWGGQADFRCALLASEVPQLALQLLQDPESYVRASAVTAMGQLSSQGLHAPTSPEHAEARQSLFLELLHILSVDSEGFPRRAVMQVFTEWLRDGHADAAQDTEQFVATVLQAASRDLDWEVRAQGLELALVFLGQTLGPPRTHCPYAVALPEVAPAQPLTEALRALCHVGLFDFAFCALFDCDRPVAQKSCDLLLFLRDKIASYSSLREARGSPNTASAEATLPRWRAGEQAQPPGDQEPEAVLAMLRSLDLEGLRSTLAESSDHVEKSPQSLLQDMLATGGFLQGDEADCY
The assay can be described thus: co-IP.

Assay [2] has as its target T1, Flag-BRAT1 wild type (human). Kind of assay: SEC.
A further assay has as its target T2, Flag-BRAT1 E522K (human) (UniProt Q6PJG6).
T2 sequence: T1 sequence with E522K
The assay can be described thus: co-IP.

As for “INTS9 (endogenous, HEK293T) (from UniProt Q9NV88 1-658)”, the binding entry in assay [1] is listed as “binds”; in assay [2], “binds”; in the assay with Flag-BRAT1 E522K (human) it was “no binding”.

In the case of “INTS11 (endogenous, HEK293T) (from UniProt Q5TA45 1-600)”, the binding result is listed as “binds” in assay [1], “binds” in assay [2] and “no binding” with Flag-BRAT1 E522K (human).
